The record followed here is PubChem BioAssay AID1487 (National Center for Advancing Translational Sciences (NCATS), 2009).

The AC50 is the midpoint of the concentration-response curve, whichever way the signal moves.

Some of the results follow. Further columns of the screen follow, without active or inactive calls. The list favours compounds with an active or inconclusive main result. The note in brackets gives the kind of curve behind each potency; many fits are weak.

The nature of the test: qHTS Assay for Modulators of Lamin A Splicing. To be noted: HeLa LMNA splicing GFP/RFP minigene ratio, 48 h. Summed up: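 S3 HeLa stable clones carrying a lamin A-EGFP splicing minigene plus DsRed2 were seeded at 600 cells/well in Opti-MEM with 2% FBS, pin-dosed and incubated 48 h at 37°C. Acumen cytometry (488 nm) gave the GFP/RFP total-intensity ratio.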
In general terms: qHTS replaces the single test concentration by a dilution series.

The mark [1] stands for this setting: measured here: RFP viability control channel.
[2] abbreviates: measured here: GFP splicing reporter channel.

With `Cc1cc(C)c(NC(=S)NCCCSC2CCCCC2)c(C)c1`, the concentration at half-maximal activity (AC50) under setting [1] is 5.62 µM [falling, partial curve].
`O=C(Nc1ccc(S(=O)(=O)NCc2cccnc2)cc1)c1ccco1`: under setting [1], the AC50 was 11.2 µM [rising, partial curve].
With `CCOC(=O)NC(=O)CSc1nc(-c2ccc(C)c(C)c2)cn1-c1ccccc1`, the AC50 under setting [1] was 31.6 µM [rising, single point].
With `O=C(Nc1ccc(N2CCOCC2)cc1)c1cc2c(s1)CCCC2`, the AC50 was 0.398 µM [falling, full curve, poor fit] under setting [2] and 0.251 µM [falling, partial curve, poor fit] under setting [1].
For the compound `Cc1nn(CC(=O)NCc2ccc(OC(C)C)cc2)c(=O)c2c(C)n(-c3ccc(Cl)cc3)nc12`, the AC50 under setting [2] was 0.447 µM [rising, partial curve, poor fit].
Take `CN(CC(=O)O/N=C(\N)c1ccc([N+](=O)[O-])cc1)S(=O)(=O)c1ccccc1`: the AC50 is 25.1 µM [rising, single point] under setting [2] and 35.5 µM [rising, single point] under setting [1].
On to `COc1ccc(NCc2nnc(SCC(=O)Nc3ccccc3)n2C)cc1`, for which, under setting [1], the concentration at half-maximal activity (AC50) is 0.447 µM [falling, full curve, poor fit].
Still for that read-out and setting: then `COc1cccc(C2=Nc3cccc4cccc(c34)N2)c1`, with 0.891 µM [rising, partial curve].
Turning to `Cc1ccc(N2C(N)=C(C#N)C3(C(=O)N(C)c4ccccc43)C3=C2CC(C)(C)CC3=O)cc1Cl` (stereo not drawn), the AC50 under setting [1] was 17.8 µM [rising, single point].
On to `CS(=O)(=O)N1CCCC(C(=O)Nc2ccc3c(c2)OCCO3)C1` (stereo not drawn), for which, under setting [2], the AC50 was 5.62 µM [rising, single point].
For `CC(=O)O[C@@H]1C(=O)[C@@]2(C)[C@H](O)C[C@H]3OC[C@]3(OC(C)=O)[C@@H]2[C@H](OC(=O)c2ccccc2)[C@@]2(O)C[C@H](OC(=O)[C@@H](O)[C@@H](NC(=O)c3ccccc3)c3ccccc3)C(C)=C1C2(C)C` (stereo in doubt), the AC50 under setting [2] was 0.0631 µM [falling, full curve] and the half-maximal activity concentration (AC50) under setting [1] was 0.0631 µM [falling, full curve].
Consider `Cc1cccn2c(=O)cc(COc3cccc(NC(=O)c4ccccc4F)c3)nc12`, for which the AC50 reads like this: under setting [2], 11.2 µM [falling, partial curve]; under setting [1], 22.4 µM [falling, partial curve].
As for `O=C(Nc1ccc(Cl)c(Cl)c1)N1CCC(c2ccccc2)C1` (stereo not drawn), the AC50 reads like this: under setting [2], 12.6 µM [rising, partial curve]; under setting [1], 35.5 µM [rising, partial curve].
For `Cc1ccc(-n2nc(C(=O)Nc3ccc(F)cc3Cl)c(=O)n(C)c2=O)cc1`, the AC50 is 0.00355 µM [falling, full curve, poor fit] under setting [2] and 0.00316 µM [falling, full curve, poor fit] under setting [1].
Turning to `CC(C)NS(=O)(=O)c1ccc(OCC(=O)Nc2cccc(F)c2)cc1`, the AC50 under setting [2] was 8.91 µM [falling, partial curve].
Still for that read-out and setting: then `O=C(O)c1ccc(-c2nc(-c3ccc(Cl)cc3)cs2)cc1`, with 35.5 µM [falling, single point].
Turning to `O=C(NCc1ccccc1F)c1ccc(S(=O)(=O)Nc2cccc(C(F)(F)F)c2)cc1`, the AC50 under setting [1] is 6.31 µM [rising, full curve, poor fit].
For `Cc1ccc(S(=O)(=O)N2CC=C(c3c(C)n(C)c4ccccc34)CC2)cc1`, the AC50 under setting [1] was 2.82 µM [rising, partial curve].
In the case of `CC1(C)CC(N2CCCC2)=CC(=[N+]2CCCCCC2)C1`, the AC50 is, setting by setting: under setting [2], 0.891 µM [falling, full curve, poor fit]; under setting [1], 1.26 µM [falling, full curve, poor fit].
Regarding `CCn1c(C)nc2cc(S(=O)(=O)C(F)(F)F)ccc21`, the AC50 under setting [1] was 14.1 µM [rising, partial curve, poor fit].
On the same count and under the same terms, then `COC(=O)c1cc(O)c(OCc2ccccc2)c(O)c1`, with 25.1 µM [rising, single point]; and `CCOC(=O)N1CCC(N2C(=O)c3ccc(C(=O)NCc4ccc(F)cc4)cc3C2=O)CC1`, with 14.1 µM [rising, single point]; and `CCOP(=O)(OCC)C(NC(=O)Nc1cccc(Cl)c1)C(N)=O` (stereo not drawn), with 0.0282 µM [rising, full curve, poor fit].
Turning to `Cc1nc2sc(C(c3cccs3)N3CCN(c4cccc(Cl)c4)CC3)c(O)n2n1` (stereo not drawn), the AC50 by setting is: under setting [2], 22.4 µM [rising, single point]; under setting [1], 14.1 µM [rising, partial curve, poor fit].
As to `O=C(NC(=S)Nc1ccc2c(c1)OCCO2)c1cccc(Br)c1`, the half-maximal activity concentration (AC50) under setting [2] is 0.112 µM [rising, full curve, poor fit] and the AC50 under setting [1] was 0.316 µM [rising, partial curve, poor fit].
With `C/C(=N\NC(N)=O)c1cccc(Cl)c1`, the AC50 under setting [2] is 3.16 µM [falling, full curve, poor fit].
With `COc1ccc(OC)c(/C=C/C(=O)Nc2ccc3c(c2)CCC3)c1`, the AC50 reads like this: under setting [2], 15.8 µM [rising, single point]; under setting [1], 35.5 µM [rising, single point].
Consider `Cn1c(=O)c2c(nc(NCCc3ccccc3)n2Cc2ccccc2)n(C)c1=O`, for which the AC50 is, setting by setting: under setting [2], 22.4 µM [rising, single point]; under setting [1], 35.5 µM [rising, single point].
Consider `O=C(NCc1ccccn1)[C@H]1C[C@@H]1[C@H](NP(=O)(c1ccccc1)c1ccccc1)c1ccccc1`, for which, under setting [1], the AC50 is 31.6 µM [rising, single point].
For the compound `CCOC(=O)CNC(=O)c1sc(NC(=O)c2cccc(F)c2)nc1C`, the half-maximal activity concentration (AC50) under setting [2] is 12.6 µM [rising, partial curve].
In the case of `Cc1ccc(C)c(N2CCN(C(=O)c3cnn(C(C)(C)C)c3C3CCN(C(=O)OC(C)(C)C)CC3)CC2)c1`, the AC50 under setting [2] is 35.5 µM [falling, single point] and the AC50 under setting [1] is 35.5 µM [falling, single point].
With `CN(c1ccccc1)S(=O)(=O)c1ccc(C(=O)Nc2nnc(C3CC3)o2)cc1`, the AC50 under setting [1] is 31.6 µM [rising, single point].
In the case of `COc1cc(/C=C2/NC(=O)N(CC(=O)Nc3ccc(C)cc3)C2=O)ccc1Oc1ccc([N+](=O)[O-])cn1`, the AC50 under setting [1] is 0.00141 µM [falling, full curve, poor fit].
Same read-out and setting: under `OCCNC(=S)Nc1ccc2nsnc2c1` stands 2.82 µM [falling, partial curve].
Regarding `Cn1c(=O)c([N+](=O)[O-])c(Cl)c2ccccc21`, the AC50 is 0.891 µM [falling, partial curve, poor fit] under setting [2] and 17.8 µM [falling, partial curve, poor fit] under setting [1].
Take `CCS(=O)(=O)N1CCN(c2ccc([N+](=O)[O-])c(N3CCOCC3)c2)CC1`: under setting [1], the AC50 was 3.98 µM [falling, partial curve].
With `COc1ccc(C)cc1NC(=O)N1CCC(CN2CCOCC2)CC1`, the AC50 under setting [1] is 0.02 µM [falling, full curve, poor fit].
The same measure, in the same setting: then `COc1ccc(OC)c(N(CC(=O)N2CCN(c3cc(Cl)ccc3C)CC2)S(C)(=O)=O)c1`, with 35.5 µM [rising, single point].
On to `Cn1cccc1C(C#N)c1ncc(C(F)(F)F)cc1Cl` (stereo not drawn), for which the AC50 under setting [2] is 2.82 µM [falling, partial curve] and the AC50 under setting [1] is 3.16 µM [falling, partial curve, poor fit].
As to `CCOc1ccc2[nH]c(=O)c(CN(CCc3ccccc3)C(=O)N3CCOCC3)cc2c1`, the AC50 is 35.5 µM [falling, single point] under setting [2] and 11.2 µM [falling, partial curve] under setting [1].
Take `O=C(Cn1cc([N+](=O)[O-])cn1)NCC1CCCO1` (stereo not drawn): the AC50 under setting [2] was 11.2 µM [rising, single point].
Consider `COc1ccc(/C=N/NC(=O)c2ccc(NC(=O)c3ccccc3Br)cc2)cc1`, for which the half-maximal activity concentration (AC50) under setting [1] was 0.0398 µM [falling, full curve, poor fit].
Same read-out and setting: under `CS(=O)(=O)N(CC(=O)Nc1c(F)cccc1F)c1cccc([N+](=O)[O-])c1` stands 3.98 µM [falling, partial curve].
For `O=C(N/N=C/c1cccc(Cl)c1Cl)Nc1ccccc1`, the AC50 by setting is: under setting [2], 22.4 µM [rising, partial curve, poor fit]; under setting [1], 14.1 µM [rising, partial curve, poor fit].
Regarding `O=C(COc1ccc(-c2ccccc2)cc1)N1CCCC1`, the AC50 was 17.8 µM [falling, single point] under setting [2] and 15.8 µM [falling, single point] under setting [1].
`Cc1cccc(NC(=O)c2ccccc2O)c1C`: the AC50 under setting [2] is 11.2 µM [rising, partial curve, poor fit] and the AC50 under setting [1] was 17.8 µM [rising, single point].
As to `O=C(COc1ccc(S(=O)(=O)N2CCCC2)cc1)NCC1CCCO1` (stereo not drawn), under setting [2], the AC50 is 0.0316 µM [falling, full curve, poor fit].
For `Cc1ccc(CCNC(=O)c2sc3ncccc3c2-n2c(C)ccc2C)cc1`, the AC50 under setting [1] was 17.8 µM [rising, partial curve, poor fit].
Turning to `CSc1nn(CCc2ccncc2)c(=S)s1`, the AC50 is, setting by setting: under setting [2], 12.6 µM [falling, partial curve]; under setting [1], 28.2 µM [falling, single point].
For the compound `CCCC(=O)N1N=C(c2ccccc2)CC1c1cn(C)c2ccccc12` (stereo not drawn), the AC50 reads like this: under setting [2], 15.8 µM [rising, single point]; under setting [1], 22.4 µM [rising, single point].
Turning to `CCOC(=O)C1(Cc2cccc(Cl)c2)CCCN(C2CCN(C(C)=O)CC2)C1` (stereo not drawn), the AC50 under setting [1] is 0.0316 µM [falling, full curve, poor fit].
Consider `Cc1ccc(C)c(NC(=S)NCCSc2ccc(Cl)cc2)c1`, for which the AC50 was 22.4 µM [rising, single point] under setting [2] and 35.5 µM [rising, single point] under setting [1].
